Some of the results follow.
What was measured:
Assay in all cases: log2 fold change, soluble protein after heating vs DMSO (PISA); higher = thermal stabilisation; K562 cells, 10 uM, 30 min; active = over 0.2 and 3.5 SD of the protein, either way, in both replicates (recomputed)
[1] = biological target: ZNF787 (UniProt Q6DD87)
How it was run: (§1)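 K562 cells at 2×10^6 cells/mL were treated with 10 μM compound for 30 min. Aliquots were heated for 3 min across 48°C-58°C, pooled, and extracted in PBS with 0.5% NP-40 at 4°C; soluble protein was the supernatant after 21,000xg for 90 min. Soluble protein was quantified by TMTpro 16plex LC-MS/MS with channel sums equalised, and reported as log2 fold change in thermal stability against DMSO controls, with values from duplicates.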

Amino acid sequences for entries named in this document (tags omitted). A change or cut given only in a name is not applied to a line headed by its entry.
UniProt Q6DD87: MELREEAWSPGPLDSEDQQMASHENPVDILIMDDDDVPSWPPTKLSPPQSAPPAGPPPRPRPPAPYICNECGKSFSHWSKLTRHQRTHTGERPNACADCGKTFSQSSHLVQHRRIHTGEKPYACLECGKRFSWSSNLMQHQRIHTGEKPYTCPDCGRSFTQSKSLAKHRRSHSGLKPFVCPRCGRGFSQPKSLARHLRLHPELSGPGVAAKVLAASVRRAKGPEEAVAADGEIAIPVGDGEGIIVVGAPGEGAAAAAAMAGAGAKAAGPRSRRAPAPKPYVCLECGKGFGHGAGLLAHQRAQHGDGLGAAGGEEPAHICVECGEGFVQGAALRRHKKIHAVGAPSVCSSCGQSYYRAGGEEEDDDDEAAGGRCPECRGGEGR
UniProt Q2TB10: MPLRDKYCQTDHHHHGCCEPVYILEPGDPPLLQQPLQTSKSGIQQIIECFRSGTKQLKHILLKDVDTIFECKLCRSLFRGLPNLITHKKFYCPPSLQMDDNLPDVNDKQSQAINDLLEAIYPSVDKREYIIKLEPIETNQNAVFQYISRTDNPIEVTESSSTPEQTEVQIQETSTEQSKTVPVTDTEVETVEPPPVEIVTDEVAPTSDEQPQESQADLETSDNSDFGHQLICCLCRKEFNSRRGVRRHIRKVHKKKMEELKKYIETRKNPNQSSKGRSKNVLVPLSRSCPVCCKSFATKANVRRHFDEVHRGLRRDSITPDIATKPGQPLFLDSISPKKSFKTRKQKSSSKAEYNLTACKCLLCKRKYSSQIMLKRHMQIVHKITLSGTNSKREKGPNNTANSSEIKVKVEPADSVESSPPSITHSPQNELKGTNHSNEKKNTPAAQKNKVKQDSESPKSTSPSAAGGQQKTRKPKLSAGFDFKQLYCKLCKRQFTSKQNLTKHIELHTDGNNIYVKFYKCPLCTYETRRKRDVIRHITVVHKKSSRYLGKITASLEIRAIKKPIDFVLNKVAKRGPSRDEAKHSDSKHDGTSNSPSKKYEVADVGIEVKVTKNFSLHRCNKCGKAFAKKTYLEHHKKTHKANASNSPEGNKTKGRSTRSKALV
UniProt Q96NB3: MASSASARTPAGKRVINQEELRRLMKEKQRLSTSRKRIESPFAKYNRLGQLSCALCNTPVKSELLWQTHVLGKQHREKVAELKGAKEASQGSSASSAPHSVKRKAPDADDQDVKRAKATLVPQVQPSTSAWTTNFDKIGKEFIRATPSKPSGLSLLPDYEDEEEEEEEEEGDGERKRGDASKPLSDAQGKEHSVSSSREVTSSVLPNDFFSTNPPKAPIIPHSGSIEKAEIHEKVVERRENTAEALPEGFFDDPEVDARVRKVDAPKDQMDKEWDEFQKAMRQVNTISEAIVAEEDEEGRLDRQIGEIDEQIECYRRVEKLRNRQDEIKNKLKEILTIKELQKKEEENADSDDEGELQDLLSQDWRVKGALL
UniProt Q6ZMS4: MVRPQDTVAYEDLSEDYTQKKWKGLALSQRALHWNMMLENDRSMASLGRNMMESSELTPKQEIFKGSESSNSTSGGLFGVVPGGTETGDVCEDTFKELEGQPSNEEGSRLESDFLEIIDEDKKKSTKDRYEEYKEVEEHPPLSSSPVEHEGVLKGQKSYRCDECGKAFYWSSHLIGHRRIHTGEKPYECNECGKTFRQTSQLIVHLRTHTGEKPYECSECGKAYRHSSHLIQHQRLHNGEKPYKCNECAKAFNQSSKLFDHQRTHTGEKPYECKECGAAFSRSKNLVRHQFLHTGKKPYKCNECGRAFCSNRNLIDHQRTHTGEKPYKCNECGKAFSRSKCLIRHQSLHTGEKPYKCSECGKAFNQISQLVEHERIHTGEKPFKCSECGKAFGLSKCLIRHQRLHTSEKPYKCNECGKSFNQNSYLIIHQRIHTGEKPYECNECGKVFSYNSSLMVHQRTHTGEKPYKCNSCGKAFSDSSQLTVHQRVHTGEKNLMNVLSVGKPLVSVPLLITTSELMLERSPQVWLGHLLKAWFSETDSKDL
UniProt O43257, whole entry, looked up: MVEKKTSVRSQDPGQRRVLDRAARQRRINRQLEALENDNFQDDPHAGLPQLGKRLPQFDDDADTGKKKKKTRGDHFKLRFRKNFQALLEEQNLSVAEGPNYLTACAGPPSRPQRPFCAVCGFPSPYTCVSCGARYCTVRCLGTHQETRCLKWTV
UniProt Q15649: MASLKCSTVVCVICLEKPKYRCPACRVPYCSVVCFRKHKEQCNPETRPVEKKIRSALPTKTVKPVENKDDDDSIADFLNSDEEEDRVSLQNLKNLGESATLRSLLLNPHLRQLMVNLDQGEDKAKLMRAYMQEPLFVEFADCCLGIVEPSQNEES
UniProt Q9NWK9: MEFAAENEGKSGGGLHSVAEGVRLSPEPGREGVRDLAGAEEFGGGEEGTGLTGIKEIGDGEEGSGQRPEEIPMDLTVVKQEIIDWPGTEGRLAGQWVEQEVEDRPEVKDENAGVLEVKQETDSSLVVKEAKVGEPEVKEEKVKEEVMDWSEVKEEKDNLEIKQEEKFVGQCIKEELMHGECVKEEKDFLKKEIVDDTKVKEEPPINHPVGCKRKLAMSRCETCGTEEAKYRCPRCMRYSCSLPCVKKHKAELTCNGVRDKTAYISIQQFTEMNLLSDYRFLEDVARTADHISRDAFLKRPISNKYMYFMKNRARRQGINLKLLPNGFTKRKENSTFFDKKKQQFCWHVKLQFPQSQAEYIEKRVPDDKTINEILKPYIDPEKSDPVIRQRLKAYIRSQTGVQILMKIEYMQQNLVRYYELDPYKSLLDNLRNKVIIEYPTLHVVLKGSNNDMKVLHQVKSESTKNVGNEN
UniProt Q9P1U0, whole entry, looked up: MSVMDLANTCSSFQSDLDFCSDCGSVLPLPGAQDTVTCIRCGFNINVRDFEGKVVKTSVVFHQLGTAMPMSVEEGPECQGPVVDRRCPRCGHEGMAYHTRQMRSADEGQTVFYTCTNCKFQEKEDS
UniProt O60232: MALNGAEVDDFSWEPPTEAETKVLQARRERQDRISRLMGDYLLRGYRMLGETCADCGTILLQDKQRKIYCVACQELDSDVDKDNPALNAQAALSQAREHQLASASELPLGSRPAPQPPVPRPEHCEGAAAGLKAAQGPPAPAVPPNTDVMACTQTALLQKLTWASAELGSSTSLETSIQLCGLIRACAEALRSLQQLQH
UniProt Q8NHG8: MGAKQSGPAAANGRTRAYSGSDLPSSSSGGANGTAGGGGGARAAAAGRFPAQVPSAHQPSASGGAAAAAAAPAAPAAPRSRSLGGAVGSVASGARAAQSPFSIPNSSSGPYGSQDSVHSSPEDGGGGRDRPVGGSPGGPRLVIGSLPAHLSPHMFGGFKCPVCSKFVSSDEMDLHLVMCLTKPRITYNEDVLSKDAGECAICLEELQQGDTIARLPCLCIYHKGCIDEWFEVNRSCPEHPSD
UniProt O75312: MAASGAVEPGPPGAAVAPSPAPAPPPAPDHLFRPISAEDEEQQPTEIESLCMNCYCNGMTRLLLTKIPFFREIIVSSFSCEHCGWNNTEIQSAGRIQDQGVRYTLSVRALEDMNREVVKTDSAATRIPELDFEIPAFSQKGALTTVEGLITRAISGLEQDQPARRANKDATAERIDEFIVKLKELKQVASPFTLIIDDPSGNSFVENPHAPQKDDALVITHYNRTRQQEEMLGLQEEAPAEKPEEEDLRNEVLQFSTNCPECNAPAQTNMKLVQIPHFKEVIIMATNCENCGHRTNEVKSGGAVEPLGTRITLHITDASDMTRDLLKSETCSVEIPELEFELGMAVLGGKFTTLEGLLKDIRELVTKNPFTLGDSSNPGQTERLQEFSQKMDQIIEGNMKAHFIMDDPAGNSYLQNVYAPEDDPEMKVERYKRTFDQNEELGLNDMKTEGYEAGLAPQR
UniProt O95218: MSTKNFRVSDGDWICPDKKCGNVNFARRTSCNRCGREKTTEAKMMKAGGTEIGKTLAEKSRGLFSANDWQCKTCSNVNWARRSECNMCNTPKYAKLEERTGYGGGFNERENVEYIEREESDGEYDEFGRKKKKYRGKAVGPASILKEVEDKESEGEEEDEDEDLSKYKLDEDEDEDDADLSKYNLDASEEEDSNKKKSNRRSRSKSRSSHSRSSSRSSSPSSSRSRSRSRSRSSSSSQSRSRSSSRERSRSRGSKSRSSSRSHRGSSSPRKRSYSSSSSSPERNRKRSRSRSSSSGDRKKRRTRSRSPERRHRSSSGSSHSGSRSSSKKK
UniProt Q16670: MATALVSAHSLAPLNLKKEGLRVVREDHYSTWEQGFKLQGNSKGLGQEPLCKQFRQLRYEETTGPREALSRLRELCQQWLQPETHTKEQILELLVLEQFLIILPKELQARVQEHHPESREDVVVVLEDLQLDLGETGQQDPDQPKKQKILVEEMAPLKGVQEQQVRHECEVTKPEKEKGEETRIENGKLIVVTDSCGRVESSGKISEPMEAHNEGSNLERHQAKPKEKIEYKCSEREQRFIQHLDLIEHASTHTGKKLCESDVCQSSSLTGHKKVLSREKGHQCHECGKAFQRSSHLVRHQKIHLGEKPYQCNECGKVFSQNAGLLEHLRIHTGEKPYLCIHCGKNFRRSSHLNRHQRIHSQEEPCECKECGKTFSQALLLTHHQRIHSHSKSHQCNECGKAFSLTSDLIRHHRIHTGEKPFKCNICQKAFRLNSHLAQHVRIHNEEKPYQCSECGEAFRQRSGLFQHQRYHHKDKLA
UniProt Q19AV6: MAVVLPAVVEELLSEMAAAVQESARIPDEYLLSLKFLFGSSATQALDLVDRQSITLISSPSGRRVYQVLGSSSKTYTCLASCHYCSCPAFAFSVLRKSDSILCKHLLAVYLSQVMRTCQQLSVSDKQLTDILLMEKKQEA
UniProt O43264: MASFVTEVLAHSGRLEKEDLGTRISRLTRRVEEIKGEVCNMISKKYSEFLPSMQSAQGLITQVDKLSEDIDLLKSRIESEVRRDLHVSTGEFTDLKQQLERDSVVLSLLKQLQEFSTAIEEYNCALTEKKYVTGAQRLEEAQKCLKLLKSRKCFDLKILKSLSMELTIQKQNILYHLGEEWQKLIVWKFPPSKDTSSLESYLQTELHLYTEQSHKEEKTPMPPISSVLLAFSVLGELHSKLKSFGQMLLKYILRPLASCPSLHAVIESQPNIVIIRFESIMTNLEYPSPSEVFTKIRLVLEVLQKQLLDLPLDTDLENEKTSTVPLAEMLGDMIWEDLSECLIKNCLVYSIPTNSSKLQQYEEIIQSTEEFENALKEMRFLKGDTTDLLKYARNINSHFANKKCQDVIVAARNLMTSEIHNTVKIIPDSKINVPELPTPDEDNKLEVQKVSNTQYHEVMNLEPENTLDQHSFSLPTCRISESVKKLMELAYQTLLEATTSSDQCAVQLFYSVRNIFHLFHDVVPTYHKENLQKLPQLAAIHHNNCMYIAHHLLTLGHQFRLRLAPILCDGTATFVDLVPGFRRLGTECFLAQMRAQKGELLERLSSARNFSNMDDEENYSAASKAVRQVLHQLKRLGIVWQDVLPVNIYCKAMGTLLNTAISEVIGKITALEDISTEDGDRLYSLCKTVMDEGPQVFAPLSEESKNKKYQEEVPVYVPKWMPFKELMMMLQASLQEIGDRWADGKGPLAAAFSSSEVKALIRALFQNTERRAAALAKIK
UniProt Q9UHR6: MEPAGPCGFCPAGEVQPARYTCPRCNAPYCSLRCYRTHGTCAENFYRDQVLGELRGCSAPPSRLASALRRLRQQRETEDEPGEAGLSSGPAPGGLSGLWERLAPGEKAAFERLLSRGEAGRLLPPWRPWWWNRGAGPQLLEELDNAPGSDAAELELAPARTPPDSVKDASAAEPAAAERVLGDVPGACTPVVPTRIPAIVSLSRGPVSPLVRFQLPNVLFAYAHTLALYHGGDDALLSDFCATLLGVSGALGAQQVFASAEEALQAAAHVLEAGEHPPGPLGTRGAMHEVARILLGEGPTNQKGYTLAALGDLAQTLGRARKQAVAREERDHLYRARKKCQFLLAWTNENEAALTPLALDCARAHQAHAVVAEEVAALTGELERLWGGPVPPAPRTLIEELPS
UniProt Q8ND25: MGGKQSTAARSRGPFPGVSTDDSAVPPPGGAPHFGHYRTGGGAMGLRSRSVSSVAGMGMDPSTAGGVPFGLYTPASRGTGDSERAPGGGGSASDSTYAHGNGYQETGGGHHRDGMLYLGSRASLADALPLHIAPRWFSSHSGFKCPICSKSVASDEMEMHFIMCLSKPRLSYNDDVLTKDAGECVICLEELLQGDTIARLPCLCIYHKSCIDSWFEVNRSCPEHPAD

[2] = biological target: ZNF800 (UniProt Q2TB10)
How it was run: as §1

[3] = biological target: ZNF830 (UniProt Q96NB3)
How it was run: as §1

[4] = biological target: ZNF852 (UniProt Q6ZMS4)
How it was run: as §1

[5] = biological target: ZNHIT1 (UniProt O43257)
How it was run: as §1

[6] = biological target: ZNHIT3 (UniProt Q15649)
How it was run: as §1

[7] = biological target: ZNHIT6 (UniProt Q9NWK9)
How it was run: as §1

[8] = biological target: ZNRD1 (UniProt Q9P1U0)
How it was run: as §1

[9] = biological target: ZNRD2 (UniProt G3V1B8)
How it was run: as §1

[10] = biological target: ZNRD2 (UniProt O60232)
How it was run: as §1

[11] = biological target: ZNRF2 (UniProt Q8NHG8)
How it was run: as §1

[12] = biological target: ZPR1 (UniProt O75312)
How it was run: as §1

[13] = biological target: ZRANB2 (UniProt O95218)
How it was run: as §1

[14] = biological target: ZSCAN26 (UniProt Q16670)
How it was run: as §1

[15] = biological target: ZSWIM7 (UniProt Q19AV6)
How it was run: as §1

[16] = biological target: ZW10 (UniProt O43264)
How it was run: as §1

[17] = biological target: ZNHIT2 (UniProt Q9UHR6)
How it was run: as §1

[18] = biological target: ZNRF1 isoform 2 (UniProt Q8ND25)
How it was run: as §1

Measured: log2 fold change

NC(=O)Nc1cc(-c2cccc(F)c2)sc1C(=O)N[C@H]1CCCNC1
inactive: [1] 0.043 | [2] -0.036 | [3] 0.035 | [4] 0.309 | [5] 0 | [6] 0.018 | [7] -0.035 | [8] -0.016 | [9] 0.141 | [10] -0.048 | [11] -0.033 | [12] -0.013 | [13] 0.076 | [14] -0.032 | [15] -0.201 | [16] -0.021

Cc1cccc(CC(=O)N2CCc3c2ccc(-c2cn(C)c4ncnc(N)c24)c3F)n1
inactive: [1] -0.016 | [2] 0.033 | [3] -0.095 | [5] 0.055 | [17] 0.011 | [6] -0.005 | [7] 0.015 | [8] -0.089 | [10] 0.042 | [18] 0.043 | [11] -0.132 | [12] 0.009 | [13] -0.065 | [16] 0.034

c1cn2cc(-c3ccc4cn[nH]c4c3)nc(Nc3ccc(N4CCOCC4)cc3)c2n1 [entospletinib]
inactive: [1] 0.066 | [2] 0.112 | [3] 0.003 | [4] -0.277 | [5] 0.041 | [6] -0.018 | [8] -0.011 | [10] 0.023 | [18] 0.041 | [11] 0.124 | [12] 0.005 | [14] -0.125 | [15] 0.188

Looked up by compound from the entries so far (2):
Cc1cccc(CC(=O)N2CCc3c2ccc(-c2cn(C)c4ncnc(N)c24)c3F)n1
inactive: [1] -0.016 | [2] 0.033 | [3] -0.095 | [5] 0.055 | [17] 0.011 | [6] -0.005 | [7] 0.015 | [8] -0.089 | [10] 0.042 | [18] 0.043 | [11] -0.132 | [12] 0.009 | [13] -0.065 | [16] 0.034

c1cn2cc(-c3ccc4cn[nH]c4c3)nc(Nc3ccc(N4CCOCC4)cc3)c2n1 [entospletinib]
inactive: [1] 0.066 | [2] 0.112 | [3] 0.003 | [4] -0.277 | [5] 0.041 | [6] -0.018 | [8] -0.011 | [10] 0.023 | [18] 0.041 | [11] 0.124 | [12] 0.005 | [14] -0.125 | [15] 0.188

(next part)

COc1cccc2cc(-c3nc([C@H]4CC[C@H](C(=O)O)CC4)n4ncnc(N)c34)[nH]c12
inactive: [1] -0.077 | [2] -0.183 | [3] 0.026 | [4] 0.402 | [5] 0.067 | [17] -0.11 | [6] -0.053 | [8] -0.012 | [9] 0.05 | [10] 0.053 | [18] -0.184 | [11] -0.068 | [12] -0.048 | [13] -0.01 | [16] -0.051

COc1ccc(Cn2ccc3ccc(C(=O)NO)cc32)cc1
inactive: [1] -0.031 | [2] -0.017 | [3] 0.086 | [4] 0.098 | [6] 0.031 | [7] -0.046 | [8] 0.346 | [10] -0.016 | [18] 0.239 | [12] -0.001 | [13] -0.022 | [16] -0.004

CCn1cc(-c2ccnc3[nH]c(-c4cccc(CN(C)C)c4)cc23)c(-c2ccc(NC(=O)N(C)C)cc2)n1
inactive: [1] 0 | [2] 0.109 | [3] 0 | [5] 0.051 | [17] 0.183 | [6] 0 | [7] -0.013 | [8] 0.074 | [10] 0.125 | [18] 0.025 | [11] 0.061 | [12] -0.049 | [13] 0.022 | [16] 0.022

CS(=O)(=O)N1CCN(Cc2cc3nc(-c4cccc5[nH]ncc45)nc(N4CCOCC4)c3s2)CC1 [pictilisib]
inactive: [1] -0.063 | [2] -0.043 | [3] -0.012 | [5] 0.017 | [17] -0.027 | [6] -0.123 | [7] 0.099 | [8] -0.18 | [10] 0.051 | [18] 0.012 | [11] 0.031 | [12] 0.021 | [13] 0.01 | [16] 0.005

CN1CCC(CNc2ccc3ncc(-c4cccc(OC(F)(F)F)c4)n3n2)CC1
inactive: [1] 0.019 | [2] -0.057 | [3] -0.002 | [5] 0.328 | [17] 0.072 | [6] 0.04 | [7] 0.016 | [8] -0.07 | [10] 0.191 | [18] -0.108 | [11] 0.008 | [12] -0.041 | [13] 0.01 | [16] -0.108

CON(C)C(=O)N1N=C(c2cc(F)ccc2F)S[C@@]1(CCCN)c1ccccc1 [filanesib]
inactive: [1] 0.255 | [2] 0.426 | [3] -0.026 | [4] -0.017 | [5] 0.156 | [6] 0.061 | [7] 0.027 | [8] 0.018 | [9] 0.038 | [10] 0.062 | [11] 0.085 | [12] -0.018 | [13] 0 | [14] 0.357 | [15] 0.07 | [16] 0.052

CNCc1ccc(-c2[nH]c3cc(F)cc4c3c2CCNC4=O)cc1 [rucaparib]
inactive: [1] 0.264 | [2] 0.307 | [3] -0.033 | [4] -0.041 | [5] -0.072 | [6] -0.016 | [8] -0.009 | [10] 0.039 | [18] 0.115 | [11] -0.018 | [12] -0.01 | [13] -0.034 | [14] 0.269 | [15] 0.048 | [16] 0.128

O=C(CCCCCCNC(=O)c1cnc(N(c2ccccc2)c2ccccc2Cl)nc1)NO [citarinostat]
inactive: [1] -0.064 | [2] 0.041 | [3] 0.007 | [4] -0.144 | [5] -0.27 | [6] -0.013 | [8] -0.005 | [10] -0.041 | [18] 0.14 | [11] -0.054 | [12] 0.038 | [13] -0.031 | [14] 0 | [15] 0.042 | [16] 0.033

O=C(CCCCCCC(=O)Nc1ccccc1)NO [vorinostat]
inactive: [1] 0.098 | [2] 0.06 | [3] -0.046 | [5] -0.033 | [17] 0.135 | [6] 0.026 | [7] 0.068 | [8] -0.129 | [10] -0.059 | [18] 0.002 | [11] 0.009 | [12] -0.007 | [13] -0.03 | [16] 0.085

COc1cc(Nc2ncc3c(n2)-c2ccc(Cl)cc2C(c2c(F)cccc2OC)=NC3)ccc1C(=O)O [alisertib]
inactive: [1] -0.02 | [2] -0.03 | [3] 0.027 | [4] -0.141 | [5] 0.374 | [17] -0.039 | [6] 0.008 | [8] -0.14 | [9] -0.323 | [10] -0.107 | [18] 0.069 | [11] 0.157 | [12] -0.02 | [13] -0.058 | [16] 0.031

Cc1ccc(-n2nc(C(C)(C)C)cc2NC(=O)Nc2ccc(OCCN3CCOCC3)c3ccccc23)cc1 [doramapimod]
inactive: [1] 0.166 | [2] 0.377 | [3] -0.002 | [4] 0.232 | [6] 0.065 | [7] -0.052 | [8] 0.025 | [10] 0.03 | [18] -0.11 | [12] -0.034 | [13] -0.014 | [16] 0.048

c1cc(OCCN2CCCCC2)cc(-c2n[nH]c3ccc(-c4nnc[nH]4)cc23)c1
inactive: [1] -0.247 | [2] -0.246 | [3] -0.007 | [4] -0.104 | [5] 0.1 | [6] -0.038 | [8] 0.036 | [10] -0.064 | [18] 0.054 | [11] 0.016 | [12] -0.025 | [13] 0.021 | [14] 0.075 | [15] -0.06 | [16] -0.016

Cc1ccc(NC(=O)c2cccc(C(C)(C)C#N)c2)cc1Nc1ccc2ncn(C)c(=O)c2c1
inactive: [1] -0.018 | [2] -0.148 | [3] -0.036 | [4] -0.112 | [5] -0.036 | [6] -0.016 | [7] -0.176 | [8] -0.002 | [9] 0.05 | [10] 0.001 | [11] 0.022 | [12] 0.021 | [13] 0.034 | [14] 0.008 | [15] 0.184 | [16] 0.015

CC[C@@H]1C(=O)N(C)c2cnc(Nc3ccc(C(=O)NC4CCN(C)CC4)cc3OC)nc2N1C1CCCC1
inactive: [1] 0.125 | [2] 0.135 | [3] 0.018 | [4] 0.179 | [5] -0.439 | [6] 0.034 | [8] 0.03 | [10] 0.018 | [18] 0 | [11] 0.036 | [12] -0.022 | [13] 0.022 | [14] -0.099 | [15] 0.104 | [16] -0.197

CS(=O)(=O)c1ccc(-c2cnc(N)c(C(=O)Nc3ccccc3)n2)cc1
inactive: [1] -0.029 | [2] -0.02 | [3] -0.008 | [4] 0.436 | [5] 0.032 | [6] 0.008 | [7] -0.046 | [8] -0.002 | [9] -0.015 | [10] 0.003 | [11] -0.102 | [12] 0.005 | [13] -0.013 | [14] 0.019 | [15] -0.105 | [16] 0.027
